Source: PubChem BioAssay AID248 (DTP/NCI, 2004)
The list shows only some results of the screen, not a fair sample: it gathers tests that were run many times, whatever their T/C, doses with no T/C, and many T/C values between a quarter and a half above the control. Further doses and runs are listed elsewhere. T/C: endpoint of the treated group in % of that of the vehicle group. Some doses have a count of surviving animals in place of a T/C: the source files T/C as zero there, which appears to mark a toxic dose or a test without result, not a measured value. Some doses without a T/C left all or most animals alive at the check, yet need not have been tolerated: survival well below the control is almost never listed, so the zero probably covers shortened survival too. Survivors were counted at the toxicity check, usually on the fifth day, unless a day is given; later deaths do not show. Schedules are NCI's codes, taken here to give the interval after Q, in days (D) or hours (H), and the number of doses after X. Some schedule codes hold Z or #, which are not explained here. Some molecules as drawn cover several salts, stereoisomers or complexes of the source; a dose is that of the sample tested. Some entries were tested several times; the results are listed from low to high. For survival time, this PubChem deposit counts one and a half times the control or more as active, and values a quarter to a half above the control carry no call in these data; other NCI protocols may use other cut-offs. Some T/C values carry the count of animals alive at the toxicity check (mostly the fifth day); where none is given, no animal had died by that day.

Test system: L1210 leukemia ip in BDF1 mice, survival T/C
Experiment: NCI In Vivo Anticancer Drug Screen. Data for tumor model L1210 Leukemia (intraperitoneal) in B6D2F1 (BDF1) mice
Conditions: higher T/C = longer survival
[1] = T/C endpoint: mean survival time, dose: 300.0 mg/kg/injection, schedule: Q01DX009 (ip), vehicle: Klucel (hydroxypropylcellulose) (HPC)
[2] = T/C endpoint: mean survival time, dose: 400.0 mg/kg/injection, schedule: Q04DX003 (ip), vehicle: saline with Tween-80

## CCN(CC)CCNc1ccc(CO)c2sc3ccccc3c(=O)c12
T/C endpoint: mean survival time, dose: 37.5 mg/kg/injection, schedule: Q01DX009 (ip), vehicle: saline
  T/C: 125 % of control
T/C endpoint: mean survival time, dose: 50.0 mg/kg/injection, schedule: Q01DX009 (ip), vehicle: saline
  T/C: 125 and 142 % of control
T/C endpoint: mean survival time, dose: 75.0 mg/kg/injection, schedule: Q01DX009 (ip), vehicle: saline
  T/C: 123, 135, 158, 178 % of control
T/C endpoint: mean survival time, dose: 81.0 mg/kg/injection, schedule: Q01DX009 (ip), vehicle: Klucel (hydroxypropylcellulose) (HPC)
  T/C: 128 % of control [5 of 6 alive]
T/C endpoint: mean survival time, dose: 107.0 mg/kg/injection, schedule: Q04DX003 (ip), vehicle: saline
  T/C: 134 % of control
T/C endpoint: mean survival time, dose: 122.0 mg/kg/injection, schedule: Q01DX009 (ip), vehicle: Klucel (hydroxypropylcellulose) (HPC)
  T/C: 130 % of control
T/C endpoint: mean survival time, dose: 132.0 mg/kg/injection, schedule: Q04DX003 (ip), vehicle: saline
  T/C: 141 % of control
T/C endpoint: mean survival time, dose: 150.0 mg/kg/injection, schedule: Q01DX009 (ip), vehicle: saline
  survivor count: 6 of 6
T/C endpoint: mean survival time, dose: 160.0 mg/kg/injection, schedule: Q04DX003 (ip), vehicle: saline
  T/C: 145 % of control
T/C endpoint: mean survival time, dose: 176.0 mg/kg/injection, schedule: Q01DX009 (ip), vehicle: carboxymethylcellulose (CMC)
  T/C: 135 % of control
T/C endpoint: mean survival time, dose: 200.0 mg/kg/injection, schedule: Q01DX009 (ip), vehicle: Klucel (hydroxypropylcellulose) (HPC)
  survivor count: 6 of 6
T/C endpoint: mean survival time, dose: 200.0 mg/kg/injection, schedule: Q04DX003 (ip), vehicle: saline
  T/C: 131 % of control [5 of 6 alive]
T/C endpoint: mean survival time, dose: 240.0 mg/kg/injection, schedule: Q04DX003 (ip), vehicle: saline
  survivor count: 3 of 6
T/C endpoint: mean survival time, dose: 264.0 mg/kg/injection, schedule: Q01DX001 (ip), vehicle: carboxymethylcellulose (CMC)
  T/C: 144 % of control
[1]
  T/C: 146 % of control
  survivor count: 6 of 6
T/C endpoint: mean survival time, dose: 300.0 mg/kg/injection, schedule: Q01DX009 (ip), vehicle: saline
  survivor count: 2 of 6
T/C endpoint: mean survival time, dose: 400.0 mg/kg/injection, schedule: Q01DX001 (ip), vehicle: carboxymethylcellulose (CMC)
  T/C: 126 % of control [5 of 6 alive]
T/C endpoint: mean survival time, dose: 400.0 mg/kg/injection, schedule: Q01DX001 (ip), vehicle: saline
  survivor count: 0 of 6
T/C endpoint: mean survival time, dose: 400.0 mg/kg/injection, schedule: Q01DX009 (ip), vehicle: carboxymethylcellulose (CMC)
  survivor count: 2 of 6
T/C endpoint: mean survival time, dose: 600.0 mg/kg/injection, schedule: Q01DX001 (ip), vehicle: carboxymethylcellulose (CMC)
  survivor count: 0 of 6
T/C endpoint: mean survival time, dose: 600.0 mg/kg/injection, schedule: Q01DX009 (ip), vehicle: carboxymethylcellulose (CMC)
  survivor count: 0 of 6
T/C endpoint: median survival time, dose: 16.0 mg/kg/injection, schedule: Q03HX024 (ip), vehicle: saline
  T/C: 130 % of control
T/C endpoint: median survival time, dose: 32.0 mg/kg/injection, schedule: Q01DX009 (ip), vehicle: saline
  T/C: 130 % of control
T/C endpoint: median survival time, dose: 32.0 mg/kg/injection, schedule: Q03HX008 (ip), vehicle: saline
  T/C: 125 % of control
T/C endpoint: median survival time, dose: 32.0 mg/kg/injection, schedule: Q03HX016 (ip), vehicle: saline
  T/C: 140 % of control
T/C endpoint: median survival time, dose: 32.0 mg/kg/injection, schedule: Q03HX024 (ip), vehicle: saline
  T/C: 130 % of control
T/C endpoint: median survival time, dose: 64.0 mg/kg/injection, schedule: Q01DX009 (ip), vehicle: saline
  T/C: 130 % of control
T/C endpoint: median survival time, dose: 64.0 mg/kg/injection, schedule: Q01DX009 (oral), vehicle: saline
  T/C: 125 % of control
T/C endpoint: median survival time, dose: 64.0 mg/kg/injection, schedule: Q01DX009 (sc), vehicle: saline
  T/C: 140 % of control
T/C endpoint: median survival time, dose: 64.0 mg/kg/injection, schedule: Q03HX008 (ip), vehicle: saline
  T/C: 145 % of control
T/C endpoint: median survival time, dose: 64.0 mg/kg/injection, schedule: Q03HX016 (ip), vehicle: saline
  T/C: 140 % of control [9 of 10 alive]
T/C endpoint: median survival time, dose: 64.0 mg/kg/injection, schedule: Q03HX024 (ip), vehicle: saline
  survivor count: 8 of 8
T/C endpoint: median survival time, dose: 128.0 mg/kg/injection, schedule: Q01DX009 (ip), vehicle: saline
  survivor count: 9 of 10
T/C endpoint: median survival time, dose: 128.0 mg/kg/injection, schedule: Q01DX009 (oral), vehicle: saline
  T/C: 125 % of control
T/C endpoint: median survival time, dose: 128.0 mg/kg/injection, schedule: Q03HX008 (ip), vehicle: saline
  survivor count: 1 of 10
T/C endpoint: median survival time, dose: 128.0 mg/kg/injection, schedule: Q03HX016 (ip), vehicle: saline
  survivor count: 0 of 10
T/C endpoint: median survival time, dose: 128.0 mg/kg/injection, schedule: Q04DX003 (ip), vehicle: saline
  T/C: 140 % of control
T/C endpoint: median survival time, dose: 128.0 mg/kg/injection, schedule: Q08DX002 (ip), vehicle: saline
  T/C: 130 % of control
T/C endpoint: median survival time, dose: 256.0 mg/kg/injection, schedule: Q01DX001 (ip), vehicle: saline
  survivor count: 1 of 10
T/C endpoint: median survival time, dose: 256.0 mg/kg/injection, schedule: Q01DX001 (sc), vehicle: saline
  survivor count: 5 of 10
T/C endpoint: median survival time, dose: 256.0 mg/kg/injection, schedule: Q01DX009 (oral), vehicle: saline
  survivor count: 10 of 10
T/C endpoint: median survival time, dose: 256.0 mg/kg/injection, schedule: Q01DX009 (sc), vehicle: saline
  survivor count: 8 of 10
T/C endpoint: median survival time, dose: 256.0 mg/kg/injection, schedule: Q04DX003 (ip), vehicle: saline
  survivor count: 7 of 9
T/C endpoint: median survival time, dose: 256.0 mg/kg/injection, schedule: Q08DX002 (ip), vehicle: saline
  survivor count: 6 of 10
T/C endpoint: median survival time, dose: 512.0 mg/kg/injection, schedule: Q01DX001 (ip), vehicle: saline
  survivor count: 0 of 10
T/C endpoint: median survival time, dose: 512.0 mg/kg/injection, schedule: Q01DX001 (sc), vehicle: saline
  T/C: 130 % of control [7 of 10 alive]
T/C endpoint: median survival time, dose: 512.0 mg/kg/injection, schedule: Q01DX009 (oral), vehicle: saline
  survivor count: 5 of 10 and 6 of 10
T/C endpoint: median survival time, dose: 512.0 mg/kg/injection, schedule: Q04DX003 (ip), vehicle: saline
  survivor count: 2 of 10
T/C endpoint: median survival time, dose: 512.0 mg/kg/injection, schedule: Q08DX002 (ip), vehicle: saline
  survivor count: 2 of 9
T/C endpoint: median survival time, dose: 1024.0 mg/kg/injection, schedule: Q01DX001 (oral), vehicle: saline
  survivor count: 2 of 10 and 5 of 10
T/C endpoint: median survival time, dose: 1024.0 mg/kg/injection, schedule: Q01DX001 (sc), vehicle: saline
  survivor count: 0 of 10
T/C endpoint: median survival time, dose: 2048.0 mg/kg/injection, schedule: Q01DX001 (oral), vehicle: saline
  survivor count: 0 of 10 and 1 of 10

## CCC1=C(c2cc(Cl)c3ccccc3c2OCC(=O)O)OC(CC)(C(=O)c2cc(Cl)c3ccccc3c2OCC(=O)O)CC1 (stereo not drawn)
T/C endpoint: mean survival time, dose: 124.0 mg/kg/injection, schedule: Q01DX Z (ip), vehicle: other
  survivor count: 6 of 6
T/C endpoint: mean survival time, dose: 248.0 mg/kg/injection, schedule: Q01DX Z (ip), vehicle: other
  survivor count: 0 of 6
[2]
  survivor count: 4 of 6

## CCC[CH2][Sn]([I])([CH2]C)[CH2]C
T/C endpoint: mean survival time, dose: 12.5 mg/kg/injection, schedule: Q04DX002 (ip), vehicle: Klucel (hydroxypropylcellulose) (HPC)
  survivor count: 0 of 3
T/C endpoint: mean survival time, dose: 25.0 mg/kg/injection, schedule: Q04DX002 (ip), vehicle: Klucel (hydroxypropylcellulose) (HPC)
  survivor count: 0 of 3
T/C endpoint: mean survival time, dose: 50.0 mg/kg/injection, schedule: Q04DX002 (ip), vehicle: Klucel (hydroxypropylcellulose) (HPC)
  survivor count: 0 of 3 and 1 of 3
T/C endpoint: mean survival time, dose: 100.0 mg/kg/injection, schedule: Q04DX002 (ip), vehicle: Klucel (hydroxypropylcellulose) (HPC)
  survivor count: 0 of 3
T/C endpoint: mean survival time, dose: 200.0 mg/kg/injection, schedule: Q04DX002 (ip), vehicle: Klucel (hydroxypropylcellulose) (HPC)
  survivor count: 0 of 3

## C[N+](C)(CC(=O)Nc1ccc(Cl)c(C(F)(F)F)c1)Cc1ccc(Cl)cc1
T/C endpoint: mean survival time, dose: 200.0 mg/kg/injection, schedule: Q04DX003 (ip), vehicle: saline with Tween-80
  survivor count: 2 of 6
[2]
  survivor count: 0 of 6

## CCCC(=O)C(CC)C(O)(C(F)(F)F)C(F)(F)F (stereo not drawn)
T/C endpoint: mean survival time, dose: 400.0 mg/kg/injection, schedule: Q01DX009 (ip), vehicle: saline
  survivor count: 2 of 6

## COc1ccccc1OC(=O)CCl
T/C endpoint: mean survival time, dose: 100.0 mg/kg/injection, schedule: Q01DX009 (ip), vehicle: saline with Tween-80
  survivor count: 6 of 6
T/C endpoint: mean survival time, dose: 200.0 mg/kg/injection, schedule: Q01DX009 (ip), vehicle: saline with Tween-80
  survivor count: 3 of 6
T/C endpoint: mean survival time, dose: 400.0 mg/kg/injection, schedule: Q01DX009 (ip), vehicle: saline with Tween-80
  survivor count: 0 of 6

## Nc1c[nH]c(=S)s1
T/C endpoint: mean survival time, dose: 400.0 mg/kg/injection, schedule: Q01DX001 (ip), vehicle: Klucel (hydroxypropylcellulose) (HPC)
  survivor count: 0 of 6
